Measured values: PubChem BioAssay AID504834 (National Center for Advancing Translational Sciences (NCATS), 2011)
Out of some 320,000 compounds screened, about 22,000 (6.9%) were called active. The inconclusive results got no clear call from the source; some entries with a clear call stand among them for comparison. Calls follow the shape of the dose curve; as a rule, active = well fitted inhibition curve with a large enough effect; inconclusive = small, poorly fitted or top-dose-only effect, or another doubt; inactive = no such curve, though single readings can be large or run the other way. Potencies beside an inconclusive call are fits to weak or partial responses and may not hold up.
Potency is read from the fitted curve at half-maximal effect.

Experiment: Primary qHTS for delayed death inhibitors of the malarial parasite plastid, 96 hour incubation
Conditions: P. falciparum luciferase reporter growth; series mostly up to 28.7 µM
Outline: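 Compounds incubated with erythrocytes infected by luciferase-expressing P. falciparum (2% hematocrit, 0.05% parasitemia final) for 96 hours, 37 C in 5% CO2. Growth inhibition scored as decreased luciferase luminescence.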
For `CCOc1ccccc1C1C(C#N)=C(N)Nc2onc(-c3ccccc3)c21` (centres undefined), the Potency was inconclusive: 0.928 µM [inhibitor, partial curve, poor fit].
For `CCC(C)N(CC(=O)Nc1cccc(C)c1C)C(=O)CCl` (centres undefined), the Potency was active: 3.7 µM.
In the case of `COc1ccc(CCNC(=O)C(=O)NCC2OCCCN2S(=O)(=O)c2cc(C)ccc2C)cc1` (centres undefined), the Potency is reported as active: 13.1 µM.
For `Cc1ccc(-c2c(C)sc3nc(CN4CCN(CC(=O)NC5CC5)CC4)[nH]c(=O)c23)cc1`, the Potency was inconclusive: 5.86 µM [inhibitor, partial curve, poor fit].
In the case of `COc1cccc(NC(=O)Cn2c3ccc(F)cc3c3nc4n(c(=O)c32)CCCS4)c1`, the Potency is reported as inconclusive: 18.5 µM [inhibitor, single point].
In the case of `COCCCNC(=O)C1CC(=O)N(CCc2ccc(OC)c(OC)c2)C1` (centres undefined), the Potency is reported as inconclusive: 11.7 µM [inhibitor, single point].
With `Cc1cc(C(=O)NC2CCCc3c2cnn3-c2cc(F)cc(F)c2)nn1C` (centres undefined) the Potency was inconclusive: 10.4 µM [inhibitor, partial curve, poor fit].
In the case of `CCc1nn(CC(=O)NCCCN(CC)Cc2ccccc2)c(=O)c2cc3sccc3n12`, the Potency is reported as “inactive”.
In the case of `CCOc1ccc(/C=N/n2c(SC)nnc(C(C)(C)C)c2=O)cc1`, the Potency is reported as “inactive”.
For `C/C(=N/NC(=O)c1ccc2c(c1)OCO2)c1ccc(Br)s1`, the Potency was inconclusive: 1.31 µM [inhibitor, partial curve, poor fit].
In the case of `COc1ccc(/C=C2\SC(=S)N(CCC(=O)Nc3cccc(O)c3)C2=O)cc1OC`, the Potency is reported as inconclusive: 18.5 µM [inhibitor, single point].
For `CC(=O)Nc1ccc(Nc2c3c4c(cccc4n(C)c2=O)C(=O)c2ccccc2-3)cc1`, the Potency was inconclusive: 18.5 µM [inhibitor, single point].
With `COc1cc(OC)c(N(C)S(=O)(=O)c2cccc(C(=O)OCC(=O)NCc3ccco3)c2)cc1Cl` the Potency was inconclusive: 18.5 µM [inhibitor, single point].
In the case of `COC(=O)CC/C(O)=C1\C(=O)CC(C)(C)CC1=NCCc1nc2ccccc2[nH]1`, the Potency is reported as inconclusive: 2.62 µM [inhibitor, full curve, poor fit].
With `CN(C(=O)c1cccc(Cl)c1)C1CCCN(Cc2ccccc2F)C1` (centres undefined) the Potency was inconclusive: 9.28 µM [inhibitor, partial curve].
For `CCc1ccccc1N1CC23C=CC(O2)C(C(=O)OCC(C)C)C3C1=O` (centres undefined), the Potency was active: 3.7 µM.
With `Cc1[nH]n2c(=O)c(C#N)c(-c3ccccc3)nc2c1-c1ccccc1` the Potency was inconclusive: 0.0657 µM [inhibitor, full curve, poor fit].
With `O=S(=O)(NC1CCCCC1N1CCCCC1)c1ccc(Cl)cc1` (centres undefined) the Potency was “inactive”.
For `O=C(CSc1cccc[n+]1[O-])c1ccc(Cl)s1`, the Potency was inconclusive: 0.738 µM [inhibitor, full curve, poor fit].
For `CC(C)c1cc(=O)n2c(nc3ccccc32)[nH]1`, the Potency was inconclusive: 18.5 µM [inhibitor, single point].
For `Nc1nc(NCc2ccco2)nc(NCCO)c1[N+](=O)[O-]`, the Potency was inconclusive: 4.65 µM [inhibitor, partial curve, poor fit].
With `Cc1ccc(CCNC(=O)C2CCN(S(=O)(=O)c3ccc4c(c3)NC(=O)C(C)S4)CC2)cc1` (centres undefined) the Potency was inconclusive: 9.28 µM [inhibitor, single point].
For `OCCC1CN(Cc2cccc3nccnc23)CCN1C1CCCC1` (centres undefined), the Potency was active: 13.1 µM.
With `COCCNc1nnc(SCC(=O)c2ccc3c(c2)OCO3)s1` the Potency was inconclusive: 1.47 µM [inhibitor, full curve, poor fit].
With `CCn1cc(C=C2C(=O)NC(=O)NC2=O)c2ccccc21` the Potency was “inactive”.
For `CCC12CSc3nc(Cl)ccc3N1C(=O)C(=O)N2C` (centres undefined), the Potency was “inactive”.
For `Cc1ccc(S(=O)(=O)N(C)c2ccc3sc(C)nc3c2)cc1`, the Potency was “inactive”.
With `CCOc1cc(/C=N/NC(=O)CN2CCOCC2)ccc1OCc1ccc(Cl)cc1` the Potency was active: 13.1 µM.
In the case of `CC(=O)c1cccc(NC(=O)/C(=C\c2ccco2)NC(=O)c2cccs2)c1`, the Potency is reported as inconclusive: 13.1 µM [inhibitor, single point].
With `COc1ccc(CNC(=O)COC(=O)/C=C/c2ccc(S(=O)(=O)N3CCOCC3)cc2)cc1` the Potency was inconclusive: 0.165 µM [inhibitor, full curve, poor fit].
For `CCC(Sc1nc2c(c(=O)[nH]1)CCC2)C(=O)Nc1cccc(OC)c1` (centres undefined), the Potency was “inactive”.
In the case of `COc1ccc(N2CCN(S(=O)(=O)c3cc(-c4cc(C)no4)ccc3C(C)C)CC2)cc1`, the Potency is reported as inconclusive: 11.7 µM [inhibitor, single point].
With `COc1ccc(NC(=O)Cn2c(=O)n(CC(=O)NCc3ccco3)c(=O)c3ccccc32)cc1` the Potency was inconclusive: 0.0185 µM [inhibitor, full curve, poor fit].
For `Cc1cc(-c2nnnn2-c2ccc(F)cc2)no1`, the Potency was “inactive”.
In the case of `O=C(CCc1nnc(CCc2c[nH]c3ccccc23)o1)NC1CCC1`, the Potency is reported as “inactive”.
In the case of `O=S(=O)(NCCCN1CCOCC1)c1ccc2ccccc2c1`, the Potency is reported as “inactive”.
In the case of `CCc1ccc(C2=NNC(=Nc3c(C)n(C)n(-c4ccccc4)c3=O)SC2)cc1`, the Potency is reported as “inactive”.
In the case of `COc1ccc(C)cc1S(=O)(=O)NC(C)C(=O)NC1CC1` (centres undefined), the Potency is reported as inconclusive: 8.28 µM [inhibitor, partial curve].
With `Cc1cc(C(=O)N/N=C/c2ccc[nH]2)no1` the Potency was “inactive”.
With `O=C(c1cc(S(=O)(=O)NCc2ccco2)ccc1Br)N1CCOCC1` the Potency was inconclusive: 18.5 µM [inhibitor, partial curve, poor fit].
In the case of `CCn1cc(CNC(=O)c2cc(-c3cc(OC)ccc3OC)nc3ccccc23)c(C)n1`, the Potency is reported as inconclusive: 11.7 µM [inhibitor, partial curve, poor fit].
With `COc1ccc(/C=C2\SC(=S)N(CC(=O)NC3CCS(=O)(=O)C3)C2=O)cc1` (centres undefined) the Potency was “inactive”.
In the case of `COc1ccc(/C=C/C(=O)Nc2cc(F)ccc2C)cc1S(=O)(=O)N1CCOCC1`, the Potency is reported as inconclusive: 8.28 µM [inhibitor, partial curve, poor fit].
In the case of `COC(=O)Cn1c2[n+](c3ccccc31)CC(O)CS2` (centres undefined), the Potency is reported as inconclusive: 18.5 µM [inhibitor, single point].
